# Measurements reported in PubChem BioAssay AID1259254 (NCATS, 2017).
# Screen: 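Finding genes that stop cells copying their DNA twice in one cycle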 (primary screen)
# System: human HCT116 colorectal cancer cells
# Reagents: single siRNA against human genes
# Timing: 3 days
# Read-out: 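Nuclei stained with Hoechst and imaged; cell-cycle phase assigned by DNA content; G2 share scaled per plate, non-targeting siRNA 0%, GMNN siRNA 100%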
# Direction: G2 robust z-score and G2 cells, % of GMNN control: higher = more G2 cells, more excess DNA replication; raw share of cells in G2: higher = larger share of cells with G2 DNA content
# Call rule: 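Active siRNAs have a G2 robust z of 5 or more median absolute deviations over the median, which in these data means about 38% or higher of GMNN control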
# In all, the deposit lists about 59,000 reagents; shown is a part drawn at random. About 1,550 of all reagents (2.6%) were called active. 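G2 share is only a proxy for re-replication; each gene was hit by three separate siRNAs, and active genes were retested.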 The raw values are shown without normalisation. Entries without a mark were called inactive. The numbers tell different reagents against one gene apart. Reagent sequences are not shown. Not stated in the record: the amount of reagent.
target gene,siRNA no.,G2 robust z-score,"G2 cells, % of GMNN control",raw share of cells in G2 (%)
GLYR1,1,1.68,14.8,9.56
GLYR1,2,0.111,3.75,6.18
GLYR1,3,-0.519,-0.684,5.15
LYPD8,1,-0.206,1.51,4.35
LYPD8,2,0.248,4.71,4.97
LYPD8,3,-0.195,1.6,3.55
COPA,1,2.47,20.4,12.2
COPA,2,1.98,16.9,11.2
COPA,3,1.03,10.2,7.61
RPL15P11,1,5.39 (active),40.9,18.7
RPL15P11,2,-0.548,-0.889,3.16
RPL15P11,3,2.83,22.9,14.3
RACK1P1,1,0.0869,3.58,4.19
RACK1P1,2,2.36,19.6,11.1
RACK1P1,3,-0.545,-0.864,2.96
TRAK2,1,-0.0795,2.41,5.63
TRAK2,2,-0.407,0.104,4.66
TRAK2,3,1.95,16.7,7.1
KLF10,1,-0.0449,2.65,4.51
KLF10,2,0.323,5.24,7.3
KLF10,3,0.162,4.11,4.6
LAT,1,1.1,10.7,7.94
LAT,2,3.47,27.4,14.9
LAT,3,2.42,20,9.56
IKBKE,1,7.32 (active),54.5,22.5
IKBKE,2,0.875,9.12,8.51
IKBKE,3,-0.414,0.0538,3.7
CCAR2,1,0.0763,3.5,5.73
CCAR2,2,-0.593,-1.21,3.88
CCAR2,3,-0.318,0.73,3.26
RAD9B,1,-0.723,-2.12,3.81
RAD9B,2,0.35,5.43,8.55
RAD9B,3,-1.11,-4.82,2.94
PFKP,1,-0.78,-2.52,4.77
PFKP,2,-1.27,-5.94,3.41
PFKP,3,-0.821,-2.81,3.04
SOX5,1,-0.382,0.282,5.78
SOX5,2,-0.506,-0.594,3.76
SOX5,3,-0.0447,2.65,5.46
ACYP2,1,0.45,6.14,6.79
ACYP2,2,-0.397,0.177,4.36
ACYP2,3,-0.406,0.114,3.53

Records listed so far whose gene name starts with I or i (3):
target gene,siRNA no.,G2 robust z-score,"G2 cells, % of GMNN control",raw share of cells in G2 (%)
IKBKE,1,7.32 (active),54.5,22.5
IKBKE,2,0.875,9.12,8.51
IKBKE,3,-0.414,0.0538,3.7

Further records follow:
target gene,siRNA no.,G2 robust z-score,"G2 cells, % of GMNN control",raw share of cells in G2 (%)
RHOD,1,-0.043,2.67,5.07
RHOD,2,-1.35,-6.51,1.86
RHOD,3,0.743,8.19,9.88
PELO,1,3.82,29.9,19.5
PELO,2,-1.14,-5.08,2.37
PELO,3,-0.675,-1.78,3.12
EEF1A1P47,1,6.71 (active),50.2,22.1
EEF1A1P47,2,1.44,13.1,8.7
EEF1A1P47,3,-0.937,-3.63,3.29
RAB17,1,-1.21,-5.57,3.34
RAB17,2,-1.43,-7.1,1.83
RAB17,3,-0.207,1.51,4.77
SHROOM3,1,-0.875,-3.19,3.07
SHROOM3,2,-1.42,-7.05,1.85
SHROOM3,3,1.7,14.9,11.8
TBX15,1,0.582,7.06,7.37
TBX15,2,-0.521,-0.699,4.74
TBX15,3,0.534,6.72,6.38
SKOR1,1,0.431,6,5.25
SKOR1,2,3.51,27.7,12.6
SKOR1,3,2.02,17.2,9.54
MORC3,1,-0.595,-1.22,3.45
MORC3,2,-0.274,1.04,6.79
MORC3,3,-0.194,1.6,4.69
INSRR,1,5.45 (active),41.3,19.3
INSRR,2,1.12,10.9,9.07
INSRR,3,0.109,3.74,5.34
